# Percent effect of library compounds

From ChEMBL document CHEMBL3988442, “University of Dundee, Small-Polar-MMV Screening Library” (2021).

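Growth of Mycobacterium tuberculosis over 3 days (7H9 medium with glucose and tyloxapol); the read-out is not stated. Concentration: 50 µM. Higher reads as more growth inhibition (inferred: compounds with an IC50 in retests scored well above the rest). About 69,000 compounds were tested under these conditions; 1.1% (about 760) showed 50% or more at least once.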

Results are given as percent effect.
How 0% and 100% were set is not recorded. Most values in the screen are low, and negative values occur.
Compounds were drawn at random from those tested, without regard to their results.
Two or more numbers in one place are separate tests of the same structure; such repeats can differ widely.

compound: Cc1cccc(NS(=O)(=O)c2cc3c(c(C(=O)O)c2)OCCO3)c1
effect: -13.39%

compound: NC(=O)CN(Cc1ncc(-c2ccc(Cl)cc2)o1)C1CCCC1
effect: 14.56%

compound: CC(=O)c1cccc(NC(=O)Cn2cnc(-c3ccccc3)cc2=O)c1
effect: 7.31% & 0.92%

compound: COc1ccc(Cl)cc1-n1cnc(CCNC(C)=O)c1
effect: -6.788%

compound: Cc1cc(CN(C)C2CCCN(c3cccnn3)C2)on1 (stereo not given)
effect: 20.14%

compound: CCC1CCCCN1Cc1nc2c(cnn2C)c(=O)[nH]1 (stereo not given)
effect: -18.85%

compound: Cc1ccc(-c2noc([C@@H]3Cc4nc[nH]c4CN3)n2)cc1
effect: 53.92% & 37.27%

compound: [H][C@]12CC[C@]([H])(CN(c3cc(N)nc(SC)n3)C1)N(Cc1cscn1)C2=O
effect: -12.14%

compound: CN(C)C(=O)c1n[nH]c2c1CN(Cc1nccs1)CC2.O=C(O)C(F)(F)F
effect: 0.5956% & -0.8521%

compound: Cc1n[nH]c(C)c1-c1cnc(CC2CCCN(S(C)(=O)=O)C2)cn1 (stereo not given)
effect: 9.446%

compound: Clc1ccc(N2CCN(CCCN3CCCCC3)CC2)nc1
effect: 12.03% & 11.01%

compound: COC(=O)CCCC(=O)N1CCC(CO)(CCc2ccccc2)CC1
effect: -9.966% & 13.76%

compound: CCCN1CCC(Nc2cc(-c3ccccc3)ccc2OC)CC1
effect: 71.32%

compound: CNC(=O)CC1CC2(CCN(Cc3nccs3)CC2)c2ccccc21.O=C(O)C(F)(F)F (stereo not given)
effect: 25.47%

compound: CCOC(C)c1noc(CN2CCCN(c3ccccn3)CC2)n1 (stereo not given)
effect: -5.44%

compound: O=C(NCCn1ccnc1)c1cc(Br)c[nH]1
effect: 18.89%

compound: COCc1cc(N2CCOC(c3ccc(Cl)cc3)C2)ncn1 (stereo not given)
effect: 20.37%

compound: [H][C@]12CC[C@]([H])(CN(c3ncnc4ccsc34)C1)N(C)C2=O
effect: -0.3028% & -48.12%

compound: CCC1CCCCN1CCNC(=O)N1CCN(Cc2ccon2)CC1 (stereo not given)
effect: 20.07%

compound: [H][C@]12CCCCN1CCC[C@H]2CNC(=O)Cn1ccc2ccc(F)cc21
effect: -10.92%

compound: O=C(O)C(F)(F)F.O=C(O)C(F)(F)F.O=S(=O)(C1CC1)N1CCC2(CCCN(Cc3ccccn3)C2)C1 (stereo not given)
effect: -16.44%

compound: O=C(c1ccc[nH]1)N1CCOCC12CCCC2
effect: -29.07%

compound: Cc1nncn1CCNC(=O)C(C)(C)c1cccc(Cl)c1
effect: 7.294%

compound: Cc1cc(OCC(=O)NS(=O)(=O)c2c(C)noc2C)ccc1Cl
effect: -1.8%

compound: CC(NC(=O)CSCC#N)c1cccc(Cl)c1 (stereo not given)
effect: 15.27%

compound: Cc1noc(C2CCN(C(=O)c3ccc(N(C)C)nc3)CC2)n1
effect: -18.41%

compound: COc1cccc(CNCc2nc3ccccc3c(=O)[nH]2)c1
effect: 19.66%

compound: CCOCCN1CCN(c2ncccc2C#N)CC1CC (stereo not given)
effect: -10.08%

compound: Cc1ccc(C(=O)N(Cc2cccnc2)C[C@@H]2CCC(=O)N2)s1
effect: 3.138%

compound: Cc1noc(C)c1CN1CCn2cc(CN3CCCC3)nc2C1.O=C(O)C(F)(F)F.O=C(O)C(F)(F)F
effect: 23.97%

compound: CN(Cc1cc[nH]n1)C(=O)c1cn(Cc2ccccc2Cl)nn1
effect: 2.502% & -8.601%

compound: CC1CCCN(C(=O)CCNS(=O)(=O)c2cccnc2)C1 (stereo not given)
effect: -5.528% & 8.07%

compound: N#Cc1ccc(C(=O)NS(=O)(=O)c2ccc(F)c(F)c2)cc1
effect: -26.67%

compound: Cn1ccc2c(C(=O)NC3CN4CCC3CC4)cccc21 (stereo not given)
effect: 0.813%

compound: COCC(=O)NCc1cccc(Br)c1
effect: 5.987%

compound: c1ccc(-c2nc(CNCCn3cccn3)cs2)cc1
effect: 26.22%

compound: CCOCC1CN(Cc2cccnc2OC)Cc2cnn(C)c21.O=C(O)C(F)(F)F.O=C(O)C(F)(F)F.O=C(O)C(F)(F)F (stereo not given)
effect: 5.981% & -3.236%

compound: CC(=O)N1CCOC(c2c(C(=O)NCCN(C)C)sc3ccccc23)C1 (stereo not given)
effect: -1.139%

compound: COc1cc(Cl)c(C)cc1NC(=O)CNc1ccn(CC(N)=O)n1
effect: 8.898%

compound: CC(C)Nc1ncc(CN2C[C@@H](CN3CCC(O)CC3)[C@@H](CO)C2)cn1
effect: 7.504%

The first 3 entries again:

compound	effect
Cc1cccc(NS(=O)(=O)c2cc3c(c(C(=O)O)c2)OCCO3)c1	-13.39%
NC(=O)CN(Cc1ncc(-c2ccc(Cl)cc2)o1)C1CCCC1	14.56%
CC(=O)c1cccc(NC(=O)Cn2cnc(-c3ccccc3)cc2=O)c1	7.31% & 0.92%